{"source": "PubChem BioAssay AID588499", "about": "(NMMLSC, 2011)", "note": "Several values for one entry are separate records, joined by “and”; a condition that tells them apart may be missing. Equal entries are not always repeated. Hit rate of the full screen: of about 360,000 compounds, about 610 (0.17%) were called active. Inconclusive means that the source gave no clear call. Such entries were picked first, then a sample of the others. Cut-off read from the data, not from the text of the source: active = inhibition above about 30%; inconclusive = no clear call, values can overlap the other calls; inactive = below that."}
{"system": "Botulinum neurotoxin type A light chain protease (Clostridium botulinum A str. ATCC 3502)", "test": "blockers of BoNT/A LC substrate cleavage – biochemical, flow cytometry, MLPCN library, primary screen (AID 588499); note: plate controls were buffer without enzyme for full effect and enzyme alone for no effect", "settings": "multiplex microsphere protease substrate cleavage, at 10 µM, hits give high values"}
{"molecule": "COCCCN=CC1=C(O)CC(C)(C)CC1=O", "inhibition": "inconclusive: -2.5%"}
{"molecule": "O=C(Nc1cccc(C(F)(F)F)c1)C1CCCN1S(=O)(=O)c1cccc2cccnc12", "note": "(configuration not stated)", "inhibition": "inconclusive: 0%"}
{"molecule": "O=C1NC[C@@H](CCCCN2C[C@H](Cc3ccc(O)cc3)N(CCc3ccc(O)cc3)C(=O)C2=O)N(Cc2ccccc2)C1=O", "inhibition": "inactive: -1.4%"}
{"molecule": "Cc1cc(C(=O)N2CCCC2C(=O)O)c(C)o1", "note": "(configuration not stated)", "inhibition": "inactive: 1.7%"}
{"molecule": "COC(=O)c1c(NC(=O)c2nn(C)cc2Cl)sc2c1CCCC2", "inhibition": "inconclusive: 2.1%"}
{"molecule": "C#CCNC(=O)c1ccc2sc([C@H]3C[C@H](O)[C@@H](CO)O3)nc2c1", "inhibition": "inactive: -0.3%"}
{"molecule": "COCCNC(=O)c1ccccc1-c1ccccc1C(=O)O", "inhibition": "inactive: -0.2%"}
{"molecule": "COCCCn1cc(CN(C)C2CN(Cc3cn(CCCOC)nn3)S(=O)(=O)C2)nn1", "note": "(configuration not stated)", "inhibition": "inactive: -1.1%"}
{"molecule": "CCOC(=O)CSc1nnc(CNC(=O)c2ccc(OC)cc2OC)n1C", "inhibition": "inconclusive: 2.4%"}
{"molecule": "O=C(NCc1ccco1)c1ccc(Cl)cc1[N+](=O)[O-]", "inhibition": "inactive: -0.2%"}
{"molecule": "COc1ccc(C(=O)N/N=C/c2ccc(OC)c(COc3ccccc3)c2)cc1", "inhibition": "inactive: 1%"}
{"molecule": "O=C(COC(=O)C1CC1)NCc1ccc(Cl)cc1Cl", "inhibition": "inactive: 0.7%"}
{"molecule": "COc1ccc(C(=O)c2c(N)sc3c2CCN(C)C3)cc1", "inhibition": "active: 33.5%"}
{"molecule": "CCOC(=O)N1CCN(C(=O)CN(c2cccc(OC)c2)S(C)(=O)=O)CC1", "inhibition": "inconclusive: 3.1%"}
{"molecule": "COc1ccccc1-c1cc(C(F)(F)F)c(C#N)c(=O)[nH]1", "inhibition": "inactive: -0.1%"}
{"molecule": "C=CC(C)(C)c1[nH]cnc1/C=C1\\NC(=O)C(C(C)C)NC1=O", "note": "(configuration not stated)", "inhibition": "inactive: -0.3%"}
{"molecule": "COC(=O)c1ccc(S(=O)(=O)NCCc2ccccc2OC)n1C", "inhibition": "inconclusive: -35.2%"}
{"molecule": "COC(=O)CSc1nc(N2CCOCC2)c2c(c1C#N)CCCC2", "inhibition": "inconclusive: 13.1%"}
{"molecule": "COc1ccc(NC(=O)CN(C)C(=O)c2ccc(NS(=O)(=O)c3ccc(C)c([N+](=O)[O-])c3)cc2)cc1", "inhibition": "inactive: -180%"}
{"molecule": "COc1ccc2nnc(-c3ccc(C(F)(F)F)cc3)n2n1", "inhibition": "inconclusive: -2.1%"}
{"molecule": "Cc1ccccc1-n1c(SCC(=O)N2CCN(c3ccccc3)CC2)nnc1-c1ccncc1", "inhibition": "inactive: -0.8%"}
{"molecule": "CSc1ccccc1C(=O)Nc1cccc(C)c1", "inhibition": "inconclusive: 16.9%"}
{"molecule": "COc1ccc(Nc2nc(N3CCCC3)nc(N3CCCC3)n2)c(OC)c1", "inhibition": "inactive: -0.6%"}
{"molecule": "CC(C)CNC(=O)C1(C)CCCN1C(=O)c1ccc2c(c1)CCO2", "note": "(configuration not stated)", "inhibition": "inactive: 0.2%"}
{"molecule": "CCn1c2ccccc2c2cc(/C=N/n3c(-c4cc(C)[nH]n4)n[nH]c3=S)ccc21", "inhibition": "inconclusive: 7.4%"}
{"molecule": "O=c1oc(-c2cccc(C(F)(F)F)c2)nn1-c1ccc(C(F)(F)F)cn1", "inhibition": "inconclusive: -6.8%"}
{"molecule": "C=CCOc1ccc(/C=C2\\N=C(C)OC2=O)cc1OC", "inhibition": "inconclusive: 6.8%"}
{"molecule": "CCOC(=O)c1c(NC(=O)CSc2nnc(Cc3ccccc3)o2)sc(C(C)=O)c1C", "inhibition": "inconclusive: -7.1%"}
{"molecule": "COc1cc(F)ccc1-c1cc(C(=O)NCc2cccs2)[nH]n1", "inhibition": "inactive: -0.8%"}
{"molecule": "CN1C(=O)c2cccc3c(Cl)ccc(c23)C1=O", "inhibition": "inconclusive: 2.3%"}
{"molecule": "Cc1cc(-c2onc(C)c2C(N)=O)no1", "inhibition": "inconclusive: -16.8%"}
{"molecule": "COc1cc(NC(=O)c2ccco2)ccc1NC(=O)C(C)C", "inhibition": "inconclusive: -4.2%"}
{"molecule": "CCn1cc(CNC(=O)CSc2nc(-c3ccc(OC)c(OC)c3)cc(C(F)(F)F)n2)c(C)n1", "inhibition": "inactive: 0.5%"}
{"molecule": "C=CCn1c(O)c(N=O)c2ccccc21", "inhibition": "inactive: -0.8%"}
{"molecule": "CCCCC(=O)Nc1nn(CC(C)C)c2nc3ccccc3cc12", "inhibition": "inconclusive: 1.4%"}
{"molecule": "O=C(Nc1ccc(Cl)cc1C(=O)NCc1cccnc1)c1ccco1", "inhibition": "inconclusive: 0.1%"}
{"molecule": "Cc1cc(C(=O)NC2CCCN(Cc3ccc(Cl)cc3)C2)c(C)o1", "note": "(configuration not stated)", "inhibition": "inactive: -2.8%"}
{"molecule": "COc1ccc2nc(NC(=O)CCN3C(=O)c4ccccc4C3=O)sc2c1", "inhibition": "inconclusive: -2.2%"}
{"molecule": "O=C1N(c2ccccc2)c2ccccc2C1(O)C(F)(F)F", "note": "(configuration not stated)", "inhibition": "inactive: 0.7%"}
{"molecule": "O=C(CSCCO)Nc1cccc2ccccc12", "inhibition": "inconclusive: -1.9%"}
{"molecule": "CC(C)NC(=O)c1sc2c(c1C(=O)Nc1cccnc1)CCCC2", "inhibition": "inconclusive: -31.4%"}
{"molecule": "COc1ccc(S(C)(=O)=O)cc1S(C)(=O)=O", "inhibition": "inconclusive: 3.1%"}
{"molecule": "CC(=O)Nc1cccc(C(=O)N(Cc2ccccc2)Cc2ccccc2)c1", "inhibition": "inconclusive: 5.7%"}
{"molecule": "COc1cc(C2Nc3ccc4ncccc4c3C3=C2C(=O)CCC3)cc(OC)c1OC", "note": "(configuration not stated)", "inhibition": "inactive: 0.1%"}
{"molecule": "O=C(NCc1ccco1)c1c(F)c(F)c(F)c(C(=O)NCc2ccco2)c1F", "inhibition": "inactive: -0.4%"}
{"molecule": "CCCc1nc2cc(C)c(Br)c(C)n2c1Cc1ccccc1OC", "inhibition": "inactive: -0.6%"}
{"molecule": "CCc1c(C)[nH]n(-c2ccc(Oc3ccccc3)c(S(=O)(=O)O)c2)c1=O", "inhibition": "inconclusive: -1.3%"}
{"molecule": "CC(C)[C@H](NC(=O)NCCc1ccc(Cl)cc1)C(=O)O", "inhibition": "inconclusive: -5.2%"}
{"molecule": "O=C1NCCN1C(=O)N(c1ccccc1)c1ccccc1", "inhibition": "inactive: 0.9%"}
{"molecule": "Cc1cc(C)c(NC(=O)CN2C(=O)NC3(CCCc4ccccc43)C2=O)c(Cl)c1", "note": "(configuration not stated)", "inhibition": "inactive: 5.2%"}
{"molecule": "O=C(Nc1cccc(Cl)c1)c1cnn2cccnc12", "inhibition": "inconclusive: -1.2%"}
{"molecule": "Cc1cc(C(=O)NC2=NCCS2)cs1", "inhibition": "inconclusive: -6.9%"}
{"molecule": "CCOCC(=O)Nc1c(C(=O)Nc2ccc(OC)cc2OC)oc2ccccc12", "inhibition": "inconclusive: -3.7%"}
{"molecule": "Cc1cccc(Oc2coc3cc(OC(=O)c4cc5ccccc5oc4=O)ccc3c2=O)c1", "inhibition": "inconclusive: -0.9%"}
{"molecule": "Cc1ccc(S(=O)(=O)N2CCN(C(=O)C3CCN(C(=O)c4ccccc4C)CC3)CC2)cc1C", "inhibition": "inactive: 0%"}
{"molecule": "Cc1ccc(/C=N/Nc2cn[nH]c(=O)n2)o1", "inhibition": "inactive: -1.1%"}
{"molecule": "CC(C)N1CCCC(C)(C(=O)Nc2nccc3ccccc23)C1", "note": "(configuration not stated)", "inhibition": "inactive: -0.5%"}
{"molecule": "CCn1c(=O)cc(OCC(=O)N(C)C2CCCCC2)c2ccccc21", "inhibition": "inconclusive: 3.4%"}
{"molecule": "CC(C)(C)c1cc2cccnc2n1Cc1cccc(Cl)c1", "inhibition": "inconclusive: 0.3%"}
{"molecule": "Cc1cccc(Oc2nccc(C(F)(F)F)c2C(=O)Nc2ccc(F)cc2F)c1", "inhibition": "inconclusive: 10.9%"}
{"molecule": "O=C(Nc1c(F)cc(F)cc1Br)c1ccco1", "inhibition": "inconclusive: 9.2%"}
{"molecule": "Cc1ccc(NC(=O)C2CC(=O)N(Cc3ccco3)C2)cc1", "note": "(configuration not stated)", "inhibition": "inconclusive: 7.5%"}
{"molecule": "CCOC(=O)c1ccc(NC(=O)Cc2cccs2)cc1", "inhibition": "inconclusive: 2.2%"}
{"molecule": "COc1ccc(CCNC(=O)C(=O)NCC2CCNCC2)cc1OC", "inhibition": "inconclusive: 5.5%"}
{"molecule": "Oc1c(C=C2N=c3ccccc3=N2)sc(=S)n1-c1ccc(F)cc1", "inhibition": "active: 39% and active: 54.1%"}
{"molecule": "Cc1cc(Oc2ccccc2)nc(SCC(=O)Nc2ccc(Cl)cc2Cl)n1", "inhibition": "inconclusive: -9.4%"}
{"molecule": "c1ccc(-c2oc3ncnc(NCCCN4CCOCC4)c3c2-c2ccccc2)cc1", "inhibition": "inactive: -3.4%"}
{"molecule": "Cc1[nH]n(C)c(=O)c1C(=O)c1c(-c2ccccc2Cl)noc1C", "inhibition": "inactive: -0.8%"}
{"molecule": "COc1ccccc1NC(=S)N1CC(C)(C)C1=O", "inhibition": "inactive: -0.3%"}
{"molecule": "COC1CC(C)NC(=S)N1", "note": "(configuration not stated)", "inhibition": "inconclusive: 20%"}
{"molecule": "Cc1cccc2cc(C(c3nnnn3CC3CCCO3)N3CCOCC3)c(=O)[nH]c12", "note": "(configuration not stated)", "inhibition": "inconclusive: 5.1%"}
{"molecule": "C/C=C/c1cccc(-c2nc(C(=O)N3CCN(C)CC3)cc3c2[C@@H](CCO)N(C(=O)NC(C)C)C3)c1", "inhibition": "inactive: -1.3%"}
{"molecule": "COC(=O)c1c(C(=O)OC)c2ccccn2c1C(=O)c1ccccc1", "inhibition": "inconclusive: 4.8%"}
{"molecule": "O=C(NC1CCCCC1)C1CCCN(c2nnnn2-c2ccccc2)C1", "note": "(configuration not stated)", "inhibition": "inconclusive: -3.6%"}
{"molecule": "O=C(CCl)N(CCCNC(=O)C(F)(F)F)c1ccc([N+](=O)[O-])cc1", "inhibition": "inactive: -5.2%"}
{"molecule": "C=CCNC(=O)c1ccc(-c2nc(-c3ccc(Cl)c(Cl)c3)cs2)cc1", "inhibition": "inconclusive: -1.1%"}
{"molecule": "N#Cc1ccc(-c2nc3ccc(Cl)cn3c2Cc2cccc(Cl)c2)cc1", "inhibition": "inactive: 0.7%"}
{"molecule": "Cc1ccc(C(=O)OCC(=O)NCCNC(=O)COC(=O)c2ccc(C)s2)s1", "inhibition": "inactive: -2.1%"}
{"molecule": "COc1cccc(OC)c1NC(=O)Cn1nc(-c2ccc3c(c2)OCCO3)ccc1=O", "inhibition": "inactive: -0.8%"}
{"molecule": "FC(F)(F)c1ccccc1-n1c(-c2cnccn2)n[nH]c1=S", "inhibition": "inconclusive: -1%"}
{"molecule": "CCOc1ccccc1-c1nc(CN2CCN(C(=O)c3ccco3)CC2)c(C)o1", "inhibition": "inactive: 0.4%"}
{"molecule": "N#C/C(=C\\c1ccc(Cl)cc1)C(=O)Nc1cccnc1", "inhibition": "inconclusive: -30.1%"}
{"molecule": "Cc1nc(-c2cccc(S(=O)(=O)N3CCOCC3)c2)cs1", "inhibition": "inconclusive: -0.3%"}
{"molecule": "CCCCCC1CC(CC(=O)Nc2ccc([N+](=O)[O-])cc2)OC1=O", "note": "(configuration not stated)", "inhibition": "inconclusive: 4.7%"}
{"molecule": "O=CNCCCc1nc2ccccc2n1Cc1cccc2ccccc12", "inhibition": "inconclusive: 4.2%"}
{"molecule": "Cn1c(=O)[nH]c(=O)c2c1nc(Br)n2CCCSc1nc2ccccc2o1", "inhibition": "inconclusive: -5.8%"}
{"molecule": "Cc1ccc(N2C(=O)c3sc4nnc(C)c(=O)n4c3C2=O)cc1", "inhibition": "inconclusive: 28.2%"}
{"molecule": "Nc1nnc(SCC(=O)N2CCN(Cc3ccccc3)CC2)s1", "inhibition": "inconclusive: -0.6%"}
{"molecule": "Cc1cc(C)nc(SCC(=O)NC2=NN=C(c3ccc(Br)cc3)CS2)n1", "inhibition": "inconclusive: -2.6%"}
{"molecule": "Cc1cc(NC(=O)NN2CCOCC2)nn1-c1c(Cl)cc(Cl)cc1Cl", "inhibition": "inconclusive: -5.5%"}
{"molecule": "CSc1n[nH]c(NC(=O)c2c(-c3c(Cl)cccc3Cl)noc2C)n1", "inhibition": "inconclusive: -28.9%"}
{"molecule": "COc1cc(/C=C2\\SC(=S)N(CCC(=O)N3CCCCC3)C2=O)cc(OC)c1OC", "inhibition": "active: 30.2%"}
